The assay relates to L1210 leukemia ip in BDF1 mice, survival T/C. In words: NCI In Vivo Anticancer Drug Screen. Data for tumor model L1210 Leukemia (intraperitoneal) in B6D2F1 (BDF1) mice. Particulars: T/C endpoint: mean survival time, higher T/C = longer survival.
[1] abbreviates: dose: 100.0 mg/kg/injection, schedule: Q04DX003 (ip), vehicle: saline with Tween-80.
Setting [2] is: dose: 400.0 mg/kg/injection, schedule: Q01DX009 (ip), vehicle: saline with Tween-80.
The mark [3] stands for this setting: dose: 200.0 mg/kg/injection, schedule: Q01DX009 (ip), vehicle: saline.
The mark [4] stands for this setting: dose: 400.0 mg/kg/injection, schedule: Q01DX009 (ip), vehicle: saline.
Where [5] appears, read: dose: 200.0 mg/kg/injection, schedule: Q04DX003 (ip), vehicle: saline with Tween-80.
Where [6] appears, read: dose: 400.0 mg/kg/injection, schedule: Q04DX003 (ip), vehicle: saline with Tween-80.
Where [7] appears, read: dose: 300.0 mg/kg/injection, schedule: Q01DX001 (ip), vehicle: carboxymethylcellulose (CMC).
Setting [8] is: dose: 200.0 mg/kg/injection, schedule: Q01DX001 (ip), vehicle: saline.
Where [9] appears, read: dose: 400.0 mg/kg/injection, schedule: Q01DX001 (ip), vehicle: saline.
[10] abbreviates: dose: 400.0 mg/kg/injection, schedule: Q04DX003 (ip), vehicle: Klucel (hydroxypropylcellulose) (HPC).

The list shows only some results of the screen, not a fair sample: it gathers tests that were run many times, whatever their T/C, doses with no T/C, and many T/C values between a quarter and a half above the control. Further doses and runs are listed elsewhere. T/C: endpoint of the treated group in % of that of the vehicle group. Some doses have a count of surviving animals in place of a T/C: the source holds a T/C of zero for them, seemingly a mark for toxic or unscored doses. Some survivor counts are full or nearly so, which does not show that the dose was tolerated: the source hardly ever lists a survival T/C far under the control, and the zero likely stands for such cases as well. Survivors were counted at the toxicity check, usually on the fifth day, unless a day is given; later deaths do not show. Schedule codes are those of the source, taken here to give the interval after Q, in days (D) or hours (H), and the number of doses after X. Some schedule codes hold Z or #, which are not explained here. Where survival is the endpoint, this PubChem deposit counts one and a half times the control or more as active, and values a quarter to a half above the control carry no call in these data; other NCI protocols may use other cut-offs. Some entries hold several experiments; their values stand side by side, smallest first.

As to `S=c1cc(-c2ccc(Cl)cc2)ss1`, the survivor count (dose: 400.0 mg/kg/injection, schedule: Q04DX003 (ip), vehicle: saline) is 6 of 6.

Turning to `O=C(NCCCCCCCNC(=O)Nc1ccc(C2=NCCN2)cc1)Nc1ccc(C2=NCCN2)cc1`, the survivor count (dose: 500.0 mg/kg/injection, schedule: Q01DX Z (ip), vehicle: carboxymethylcellulose (CMC)) is recorded as 3 of 6.

On to `O=C(O)CNC(=O)C(CSCc1ccccc1)NC(=O)OCc1ccccc1` (configuration not stated), for which the survivor count (dose: 200.0 mg/kg/injection, schedule: Q04DX003 (ip), vehicle: Klucel (hydroxypropylcellulose) (HPC)) is 6 of 6.

For the molecule `COc1ccc(/C(C)=N/N=C(\C)c2ccc(OC)cc2)cc1`, the survivor count under setting [1] is 3 of 3.

Consider `c1ccc(Pc2ccccc2)cc1`, for which the survivor count under setting [2] was 0 of 6.

For `Nc1nc(=O)n(C2OC(CO)C(O)C2O)cc1Cl` (configuration not stated), the T/C (dose: 100.0 mg/kg/injection, schedule: Q01DX005 (ip), vehicle: saline) is 134 and 138 % of control; the T/C (dose: 100.0 mg/kg/injection, schedule: Q01DX009 (ip), vehicle: saline) is 140 % of control.

As to `C[N+](C)(C)Cc1ccco1`, the survivor count reads like this: under setting [3], 4 of 6; under setting [4], 0 of 6.

Turning to `O=C(CCCCl)Oc1ccccc1`, the survivor count under setting [5] is 6 of 6, the survivor count under setting [2] was 4 of 6 and the survivor count under setting [6] was 6 of 6.

For `COc1cc(N)c(CC2c3cc(OC)c(OC)cc3CCN2C)cc1OC` (configuration not stated), the survivor count under setting [7] is 2 of 6.

For `c1ccc(C[As+](c2ccccc2)(c2ccccc2)c2ccccc2)cc1`, the survivor count (dose: 80.0 mg/kg/injection, schedule: Q01DX001 (ip), vehicle: saline) is 0 of 6; the survivor count (dose: 100.0 mg/kg/injection, schedule: Q04DX002 (ip), vehicle: saline with Tween-80) was 0 of 3; the survivor count (dose: 200.0 mg/kg/injection, schedule: Q04DX002 (ip), vehicle: saline with Tween-80) is 0 of 3; the survivor count (dose: 400.0 mg/kg/injection, schedule: Q04DX002 (ip), vehicle: saline with Tween-80) is 0 of 3.

With `C/C(=N\[N+](C)(C)C)c1ccc(C)cc1`, the survivor count reads like this: under setting [8], 0 of 6; under setting [9], 0 of 6.

For `c1ccc(-c2nn(-c3ccccc3)[n+](-c3ccccc3)n2)cc1`, the survivor count reads like this: under setting [1], 0 of 6; under setting [5], 0 of 6; under setting [6], 0 of 6.

As for `O=c1[nH]nc(CF)c(=O)[nH]1`, where the note is “dose: 25.0 mg/kg/injection, schedule: Q01DX Z (ip), vehicle: saline”, the T/C is 127 % of control. Also, the survivor count reads like this: (dose: 40.0 mg/kg/injection, schedule: Q01DX Z (ip), vehicle: saline) 3 of 6; (dose: 48.0 mg/kg/injection, schedule: Q01DX009 (ip), vehicle: saline) 4 of 6.

`O=C(Nc1ccccc1C(F)(F)F)Nc1cccc2c(O)cccc12`: the survivor count (dose: 100.0 mg/kg/injection, schedule: Q04DX002 (ip), vehicle: carboxymethylcellulose (CMC)) was 3 of 3.

Regarding `C(=N\c1nncs1)/Nc1nncs1`, the T/C (dose: 60.0 mg/kg/injection, schedule: Q01DX015 (ip), vehicle: carboxymethylcellulose (CMC)) was 129 % of control. The survivor count was 4 of 6 (dose: 90.0 mg/kg/injection, schedule: Q01DX015 (ip), vehicle: carboxymethylcellulose (CMC)); 5 of 6 (dose: 135.0 mg/kg/injection, schedule: Q01DX015 (ip), vehicle: carboxymethylcellulose (CMC)); 2 of 4 (dose: 200.0 mg/kg/injection, schedule: Q01DX001 (ip), vehicle: carboxymethylcellulose (CMC)).

For `NC1(C(=O)O)CC(O)(c2ccccc2)C(O)(c2ccccc2)C1` (configuration not stated), the survivor count under setting [9] is listed as 4 of 4.

As for `CCC(C)C1NC(=O)C(C(C)=O)=C1O.[Cu+2]` (configuration not stated), the survivor count is 3 of 6 (dose: 75.0 mg/kg/injection, schedule: Q01DX001 (ip), vehicle: carboxymethylcellulose (CMC)) and 1 of 6 under setting [7].

Regarding `CCOC(=O)c1cccc(N(CCOS(C)(=O)=O)CCOS(C)(=O)=O)c1`, the survivor count (dose: 128.0 mg/kg/injection, schedule: Q01DX015 (ip), vehicle: saline) is 5 of 6.

For the molecule `Cc1cc(N(C)C)c(C(C)C)cc1O` (tested in a mixture with another compound), the survivor count is, setting by setting: (dose: 100.0 mg/kg/injection, schedule: Q01DX001 (ip), vehicle: saline) 0 of 6; under setting [8], 0 of 6; under setting [9], 0 of 6.

As for `Cc1nccnc1N`, the survivor count reads like this: under setting [3], 1 of 6; under setting [4], 0 of 6.

Regarding `C(#Cc1ccccc1)COCC1CO1` (configuration not stated), the survivor count under setting [6] is 0 of 6.

Consider `NC1CC[N-]CC1.NC1CC[N-]CC1.[Cl][Pt+2][Cl]`, for which the survivor count under setting [4] is listed as 5 of 6.

For `CSc1ccc([N+](=O)[O-])cc1`, under setting [10], the survivor count is given as 1 of 6.

As for `CCCCCCCCCCCCCCC1CC(=O)OC1=O` (configuration not stated), the survivor count (dose: 400.0 mg/kg/injection, schedule: Q01DX009 (ip), vehicle: Klucel (hydroxypropylcellulose) (HPC)) is 0 of 6.

As to `CS(=O)(=O)OCCN(CCOS(C)(=O)=O)c1ccc(C=Nc2ccc3ccccc3c2)c(Cl)c1`, the T/C under setting [10] was 130 % of control.

As to `CCN(CCCl)CC1C(c2ccccc2)C1c1ccccc1` (configuration not stated), the survivor count (dose: 100.0 mg/kg/injection, schedule: Q04DX002 (ip), vehicle: Klucel (hydroxypropylcellulose) (HPC)) is 0 of 3.

As for `COCCCNP(=S)(N1CC1)N1CC1`, the T/C (dose: 8.0 mg/kg/injection, schedule: Q01DX Z (ip), vehicle: saline) was 139 % of control. In addition, under “dose: 16.0 mg/kg/injection, schedule: Q01DX Z (ip), vehicle: saline”, the survivor count is 6 of 6.
